Biological target: T1, SyDdh (GST-SyDdh) (Synechocystis sp. PCC 6803, UniProt P74586)
T1 construct: gene ddh; Full ddh ORF, GST-tagged (tag kept, pGEX5X-1), expressed in E. coli DH5alpha, glutathione-Sepharose purified
T1 sequence (P74586 1-333): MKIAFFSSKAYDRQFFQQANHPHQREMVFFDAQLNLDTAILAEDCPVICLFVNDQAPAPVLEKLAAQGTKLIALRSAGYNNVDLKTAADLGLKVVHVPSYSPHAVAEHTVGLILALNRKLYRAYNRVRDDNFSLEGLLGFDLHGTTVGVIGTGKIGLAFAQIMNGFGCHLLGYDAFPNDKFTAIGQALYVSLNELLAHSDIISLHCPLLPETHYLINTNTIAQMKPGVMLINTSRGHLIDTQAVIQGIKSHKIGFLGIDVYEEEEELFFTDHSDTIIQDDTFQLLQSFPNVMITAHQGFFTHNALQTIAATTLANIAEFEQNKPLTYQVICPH
Experiment: NADH oxidation followed at A340
Format: biochemical
Details: read-out: % activity at 2.5 mM

`O=C(O)CC(O)(CC(=O)O)C(=O)O` [citrate] was tested, and the activity at 2500 µM was 116%.

— PMC5678113, “Substrate Specificity and Allosteric Regulation of a D-Lactate Dehydrogenase from a Unicellular Cyanobacterium are Altered by an Amino Acid Substitution” (Scientific Reports, 2017)
